Reference: the supplement of paper PMC8728848
The other results are listed elsewhere or left out.

How the values were obtained:
Experiment in all cases: glycan array binding signal (z-score within array); higher = stronger binding
Conditions in all cases: glycan notation: IUPAC condensed, linker removed
[1] = target: Fuc(a1-2)[Gal(a1-3)]Gal(b1-4)GlcNAc(b1-2)Man(a1-3)[Fuc(a1-2)[Gal(a1-3)]Gal(b1-4)GlcNAc(b1-2)Man(a1-6)]Man(b1-4)GlcNAc(b1-4)[Fuc(a1-6)]GlcNAc
How it was run: (§1)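 Arrays were curated from the Consortium for Functional Glycomics database, 3228 in total, and kept only where the protein sequence was available. Binding is expressed as a within-array Z-score. This score was averaged across arrays of the same protein sequence at different concentrations or buffers and across linkers, and negative values can be read as non-binding.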

[2] = target: Fuc(a1-2)[Gal(a1-3)]Gal(b1-4)GlcNAc(b1-3)GalNAc
How it was run: as §1

[3] = target: Fuc(a1-2)[Gal(a1-3)]Gal(b1-4)GlcNAc(b1-3)[Fuc(a1-2)[Gal(a1-3)]Gal(b1-4)GlcNAc(b1-6)]GalNAc
How it was run: as §1

[4] = target: Fuc(a1-2)[Gal(a1-3)]Gal(b1-4)GlcNAc(b1-6)GalNAc
How it was run: as §1

[5] = target: Fuc(a1-2)[Gal(a1-3)]Gal(b1-4)[Fuc(a1-3)]Glc
How it was run: as §1

[6] = target: Fuc(a1-2)[Gal(a1-3)]Gal(b1-4)[Fuc(a1-3)]GlcNAc
How it was run: as §1

[7] = target: Fuc(a1-2)[Gal(a1-3)]Gal(b1-4)[Fuc(a1-3)]GlcNAc(b1-3)GalNAc
How it was run: as §1

[8] = target: Fuc(a1-2)[Gal(a1-4)]Gal(b1-4)GlcNAc
How it was run: as §1

[9] = target: Fuc(a1-2)[GalNAc(a1-3)]Gal
How it was run: as §1

[10] = target: Fuc(a1-2)[GalNAc(a1-3)]Gal(b1-3)GalNAc(a1-3)[Fuc(a1-2)]Gal(b1-4)GlcNAc
How it was run: as §1

[11] = target: Fuc(a1-2)[GalNAc(a1-3)]Gal(b1-3)GalNAc(b1-3)Gal(a1-4)Gal(b1-4)Glc
How it was run: as §1

[12] = target: Fuc(a1-2)[GalNAc(a1-3)]Gal(b1-3)GlcNAc
How it was run: as §1

[13] = target: Fuc(a1-2)[GalNAc(a1-3)]Gal(b1-3)GlcNAc(b1-2)Man(a1-3)[Fuc(a1-2)[GalNAc(a1-3)]Gal(b1-3)GlcNAc(b1-2)Man(a1-6)]Man(b1-4)GlcNAc(b1-4)GlcNAc
How it was run: as §1

[14] = target: Fuc(a1-2)[GalNAc(a1-3)]Gal(b1-3)GlcNAc(b1-2)Man(a1-3)[Fuc(a1-2)[GalNAc(a1-3)]Gal(b1-3)GlcNAc(b1-2)Man(a1-6)]Man(b1-4)GlcNAc(b1-4)[Fuc(a1-6)]GlcNAc
How it was run: as §1

[15] = target: Fuc(a1-2)[GalNAc(a1-3)]Gal(b1-3)GlcNAc(b1-3)GalNAc
How it was run: as §1

[16] = target: Fuc(a1-2)[GalNAc(a1-3)]Gal(b1-3)GlcNAc(b1-6)GalNAc
How it was run: as §1

[17] = target: Fuc(a1-2)[GalNAc(a1-3)]Gal(b1-4)Glc
How it was run: as §1

[18] = target: Fuc(a1-2)[GalNAc(a1-3)]Gal(b1-4)GlcNAc
How it was run: as §1

[19] = target: Fuc(a1-2)[GalNAc(a1-3)]Gal(b1-4)GlcNAc(b1-2)Man
How it was run: as §1

[20] = target: Fuc(a1-2)[GalNAc(a1-3)]Gal(b1-4)GlcNAc(b1-2)Man(a1-3)[Fuc(a1-2)[GalNAc(a1-3)]Gal(b1-4)GlcNAc(b1-2)Man(a1-6)]Man(b1-4)GlcNAc(b1-4)GlcNAc
How it was run: as §1

[21] = target: Fuc(a1-2)[GalNAc(a1-3)]Gal(b1-4)GlcNAc(b1-2)Man(a1-3)[Fuc(a1-2)[GalNAc(a1-3)]Gal(b1-4)GlcNAc(b1-2)Man(a1-6)]Man(b1-4)GlcNAc(b1-4)[Fuc(a1-6)]GlcNAc
How it was run: as §1

[22] = target: Fuc(a1-2)[GalNAc(a1-3)]Gal(b1-4)GlcNAc(b1-3)Gal(b1-4)GlcNAc
How it was run: as §1

[23] = target: Fuc(a1-2)[GalNAc(a1-3)]Gal(b1-4)GlcNAc(b1-3)Gal(b1-4)GlcNAc(b1-3)Gal(b1-4)GlcNAc
How it was run: as §1

[24] = target: Fuc(a1-2)[GalNAc(a1-3)]Gal(b1-4)GlcNAc(b1-3)GalNAc
How it was run: as §1

[25] = target: Fuc(a1-2)[GalNAc(a1-3)]Gal(b1-4)GlcNAc(b1-3)[Fuc(a1-2)[GalNAc(a1-3)]Gal(b1-4)GlcNAc(b1-6)]GalNAc
How it was run: as §1

[26] = target: Fuc(a1-2)[GalNAc(a1-3)]Gal(b1-4)GlcNAc(b1-6)GalNAc
How it was run: as §1

[27] = target: Fuc(a1-2)[GalNAc(a1-3)]Gal(b1-4)[Fuc(a1-3)]GlcNAc
How it was run: as §1

[28] = target: Fuc(a1-2)[GalNAc(a1-3)]Gal(b1-4)[Fuc(a1-3)]GlcNAc(b1-3)GalNAc
How it was run: as §1

[29] = target: Fuc(a1-2)[GalNAc(a1-4)]Gal(b1-4)GlcNAc
How it was run: as §1

[30] = target: Fuc(a1-2)[GalNAc(b1-3)]Gal
How it was run: as §1

Fuc(a1-3)GlcNAc = target: Fuc(a1-3)GlcNAc
How it was run: as §1

[31] = target: Fuc(a1-3)[Gal(b1-4)]Glc6S
How it was run: as §1

[32] = target: Fuc(a1-3)[Gal(b1-4)]GlcNAc
How it was run: as §1

[33] = target: Fuc(a1-3)[Gal(b1-4)]GlcNAc(b1-2)Man
How it was run: as §1

[34] = target: Fuc(a1-3)[Gal(b1-4)]GlcNAc(b1-2)Man(a1-3)[Fuc(a1-3)[Gal(b1-4)]GlcNAc(b1-2)Man(a1-6)]Man(b1-4)GlcNAc(b1-4)GlcNAc
How it was run: as §1

[35] = target: Fuc(a1-3)[Gal(b1-4)]GlcNAc(b1-2)Man(a1-3)[Fuc(a1-3)[Gal(b1-4)]GlcNAc(b1-2)Man(a1-6)]Man(b1-4)GlcNAc(b1-4)[Fuc(a1-6)]GlcNAc
How it was run: as §1

[36] = target: Fuc(a1-3)[Gal(b1-4)]GlcNAc(b1-3)Gal(b1-3)[Fuc(a1-4)]GlcNAc
How it was run: as §1

B1: Clec18Av1 (Homo sapiens), A5D8T8 (protein)
chain: MLHPETSPGRGHLLAVLLALLGTAWAEVWPPQLQEQAPMAGALNRKESFLLLSLHNRLRSWVQPPAADMRRLDWSDSLAQLAQARAALCGTPTPSLASGLWRTLQVGWNMQLLPAGLVSFVEVVSLWFAEGQRYSHAAGECARNATCTHYTQLVWATSSQLGCGRHLCSAGQAAIEAFVCAYSPRGNWEVNGKTIVPYKKGAWCSLCTASVSGCFKAWDHAGGLCEVPRNPCRMSCQNHGRLNISTCHCHCPPGYTGRYCQVRCSLQCVHGRFREEECSCVCDIGYGGAQCATKVHFPFHTCDLRIDGDCFMVSSEADTYYRARMKCQRKGGVLAQIKSQKVQDILAFYLGRLETTNEVIDSDFETRNFWIGLTYKTAKDSFRWATGEHQAFTSFAFGQPDNHGFGNCVELQASAAFNWNDQRCKTRNRYICQFAQEHISRWGPGS
glycan array binding signal (z-score) [1]: 0.435
glycan array binding signal (z-score) [2]: 0.886
glycan array binding signal (z-score) [3]: 1.02
glycan array binding signal (z-score) [4]: -0.84
glycan array binding signal (z-score) [5]: -0.849
glycan array binding signal (z-score) [6]: -0.344
glycan array binding signal (z-score) [7]: -0.446
glycan array binding signal (z-score) [8]: -0.251
glycan array binding signal (z-score) [9]: -0.304
glycan array binding signal (z-score) [10]: -0.851
glycan array binding signal (z-score) [11]: 0.541
glycan array binding signal (z-score) [12]: -0.502
glycan array binding signal (z-score) [13]: 0.685
glycan array binding signal (z-score) [14]: -0.378
glycan array binding signal (z-score) [15]: -0.588
glycan array binding signal (z-score) [16]: 0.146
glycan array binding signal (z-score) [17]: -0.854
glycan array binding signal (z-score) [18]: -0.045
glycan array binding signal (z-score) [19]: -0.791
glycan array binding signal (z-score) [20]: 0.028
glycan array binding signal (z-score) [21]: 0.487
glycan array binding signal (z-score) [22]: -0.343
glycan array binding signal (z-score) [23]: -0.105
glycan array binding signal (z-score) [24]: -0.79
glycan array binding signal (z-score) [25]: -0.593
glycan array binding signal (z-score) [26]: 0.672
glycan array binding signal (z-score) [27]: -0.092
glycan array binding signal (z-score) [28]: -0.613
glycan array binding signal (z-score) [29]: 1.16
glycan array binding signal (z-score) [30]: 0.898
glycan array binding signal (z-score) (Fuc(a1-3)GlcNAc): -0.876
glycan array binding signal (z-score) [31]: 0.022
glycan array binding signal (z-score) [32]: -0.368
glycan array binding signal (z-score) [33]: -0.833
glycan array binding signal (z-score) [34]: 0.864
glycan array binding signal (z-score) [35]: 1.88
glycan array binding signal (z-score) [36]: 0.526
